Measurements reported in PubChem BioAssay AID1159578 (Peter MacCallum Cancer Centre, 2015).
Here is an unselected part of about 18,000 reagents. In the full data, about 1,030 (5.7%) got an active call. 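Inactive calls also include pools with fewer than 3300 nuclei, whose migration was not assessed.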 The raw values are shown without normalisation. A number with no mark means an inactive call. Further read-outs or replicates are left out here.

Screen: 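siRNA pools altering how lymphatic endothelial cells close a scratch wound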 (primary screen)
Cells: human lymphatic endothelial cells
Reagents: siRNA pool against human genes, 40 nM
Duration: 48 h after transfection
Measured: 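High-content imaging of dye-stained cells in a scratch assay measures filled wound area and nuclei per well; duplicate means given as ratio to mock and robust z-score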
Scale: migration robust z-score: higher = faster migration into the scratch; nuclei per well: higher = more cells in the well
Rule for the call: 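Migration changed when robust z exceeds 2 or falls below -2 and mean nuclei number is at least 3300; otherwise not called changed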
Calls: active = migration changed; inactive = no migration change, or too few cells

MORC1 — migration robust z-score = 1.53; nuclei per well, duplicate mean = 3518
ARID2 — migration robust z-score = 0.12; nuclei per well, duplicate mean = 7000
SIX3 — migration robust z-score = 0.18; nuclei per well, duplicate mean = 5514
ARHGEF9 — migration robust z-score = 0.86; nuclei per well, duplicate mean = 5836
LRCH1 — migration robust z-score = 3.01 (active); nuclei per well, duplicate mean = 6197
PIGK — migration robust z-score = -0.62; nuclei per well, duplicate mean = 4860
KRTAP10-8 — migration robust z-score = -1.81; nuclei per well, duplicate mean = 5639
KCNB2 — migration robust z-score = -1.01; nuclei per well, duplicate mean = 5354
KCTD2 — migration robust z-score = -0.78; nuclei per well, duplicate mean = 5605
KCNA5 — migration robust z-score = -0.62; nuclei per well, duplicate mean = 5668
WFIKKN1 — migration robust z-score = 0.41; nuclei per well, duplicate mean = 6030
SMN1 — migration robust z-score = 1.29; nuclei per well, duplicate mean = 6992

Already shown: entries from further up.
MORC1 — migration robust z-score = 1.53; nuclei per well, duplicate mean = 3518
ARID2 — migration robust z-score = 0.12; nuclei per well, duplicate mean = 7000
